Experimental data: PubChem BioAssay AID1508597 (Cure First, 2020)
Screen: 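Survival screen with siRNA in ovarian cancer cells derived from patients, with or without rucaparib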 (primary screen). Cell system: human ovarian carcinoma lines grown from tumours: OCI-P5x (papillary serous) and OCI-C5x (clear cell). Knock-down reagent: siRNA pool against human genes, 1.25 pmol siRNA per well. Time to read-out: 72 h or 96 h, depending on the cell culture. Conditions: rucaparib 20 µM (about IC30) or vehicle, present until read-out. Rucaparib or vehicle: Vehicle. Cell line: OCI-C5x (clear cell). Measured: 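ATP luminescence measured at 72 or 96 h according to the culture, then normalised and expressed as percent viability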. Direction: viability, normalised: higher = more viable cells remaining. Hit rule: 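a well counts as a hit if its normalised viability is under 80 percent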. Meaning of the calls: active = viability under 80%; inactive = viability 80% or more.
Shown is a random part of the about 2,100 reagents, in one setting of the screen. 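Calls flag viability under 80% in either arm, not effects specific to rucaparib; the reference for percent is not stated.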 Unmarked entries are inactive. A reagent listed more than once was tested more than once; the source does not tell the runs apart. Reagent sequences are not shown. The record does not give: the 100% reference.

| gene | technical replicate | viability, normalised (%) |
| --- | --- | --- |
| PRDM14 (PR/SET domain 14) | 1 | 30.6 (active) |
| PRDM14 (PR/SET domain 14) | 2 | 41.6 (active) |
| PRDM14 (PR/SET domain 14) | 3 | 38.2 (active) |
| PCNA (proliferating cell nuclear antigen) | 1 | 49.7 (active) |
| PCNA (proliferating cell nuclear antigen) | 2 | 48.1 (active) |
| PCNA (proliferating cell nuclear antigen) | 3 | 39.5 (active) |
| RUVBL1 (RuvB like AAA ATPase 1) | 1 | 36.3 (active) |
| RUVBL1 (RuvB like AAA ATPase 1) | 2 | 28.1 (active) |
| RUVBL1 (RuvB like AAA ATPase 1) | 3 | 39.2 (active) |
| MAEL (maelstrom spermatogenic transposon silencer) | 1 | 55.6 (active) |
| MAEL (maelstrom spermatogenic transposon silencer) | 2 | 78.5 (active) |
| MAEL (maelstrom spermatogenic transposon silencer) | 3 | 68.9 (active) |
| NIN (ninein) | 1 | 32.4 (active) |
| NIN (ninein) | 2 | 47.6 (active) |
| NIN (ninein) | 3 | 51.3 (active) |
| BCKDK (branched chain keto acid dehydrogenase kinase) | 1 | 57.9 (active) |
| BCKDK (branched chain keto acid dehydrogenase kinase) | 2 | 53.1 (active) |
| BCKDK (branched chain keto acid dehydrogenase kinase) | 3 | 42.6 (active) |
| PIAS1 (protein inhibitor of activated STAT 1) | 1 | 22.9 (active) |
| PIAS1 (protein inhibitor of activated STAT 1) | 2 | 18.3 (active) |
| PIAS1 (protein inhibitor of activated STAT 1) | 3 | 20.3 (active) |
| CENPV (centromere protein V) | 1 | 22.5 (active) |
| CENPV (centromere protein V) | 2 | 30 (active) |
| CENPV (centromere protein V) | 3 | 30.1 (active) |
| SIRT5 (sirtuin 5) | 1 | 28.5 (active) |
| SIRT5 (sirtuin 5) | 2 | 59.3 (active) |
| SIRT5 (sirtuin 5) | 3 | 53.4 (active) |
| ALG8 (ALG8 alpha-1,3-glucosyltransferase) | 1 | 53.4 (active) |
| ALG8 (ALG8 alpha-1,3-glucosyltransferase) | 2 | 50.7 (active) |
| ALG8 (ALG8 alpha-1,3-glucosyltransferase) | 3 | 43.1 (active) |

Looked up above:
NIN (ninein), technical replicate 3, viability, normalised (%) = 51.3 (active)
NIN (ninein), technical replicate 1, viability, normalised (%) → 32.4 (active)
Under “viability, normalised (%)”, PCNA (proliferating cell nuclear antigen), technical replicate 1 shows 49.7 (active)
Value of RUVBL1 (RuvB like AAA ATPase 1), technical replicate 3 under “viability, normalised (%)”: 39.2 (active)
MAEL (maelstrom spermatogenic transposon silencer), technical replicate 1, viability, normalised (%): 55.6 (active)
ALG8 (ALG8 alpha-1,3-glucosyltransferase), technical replicate 2, viability, normalised (%) = 50.7 (active)

The list goes on:
| gene | technical replicate | viability, normalised (%) |
| --- | --- | --- |
| PDE6C (phosphodiesterase 6C) | 1 | 33.8 (active) |
| PDE6C (phosphodiesterase 6C) | 2 | 47.6 (active) |
| PDE6C (phosphodiesterase 6C) | 3 | 33.3 (active) |
| POLE3 (DNA polymerase epsilon 3, accessory subunit) | 1 | 35.3 (active) |
| POLE3 (DNA polymerase epsilon 3, accessory subunit) | 2 | 35 (active) |
| POLE3 (DNA polymerase epsilon 3, accessory subunit) | 3 | 39.3 (active) |
| ELP3 (elongator acetyltransferase complex subunit 3) | 1 | 41.3 (active) |
| ELP3 (elongator acetyltransferase complex subunit 3) | 2 | 58.2 (active) |
| ELP3 (elongator acetyltransferase complex subunit 3) | 3 | 52.1 (active) |
| TANK (TRAF family member associated NFKB activator) | 1 | 80.5 |
| TANK (TRAF family member associated NFKB activator) | 2 | 70.7 (active) |
| TANK (TRAF family member associated NFKB activator) | 3 | 78.5 (active) |
| CBX1 (chromobox 1) | 1 | 56 (active) |
| CBX1 (chromobox 1) | 2 | 77.5 (active) |
| CBX1 (chromobox 1) | 3 | 60.3 (active) |
| PRDM6 (PR/SET domain 6) | 1 | 53.9 (active) |
| PRDM6 (PR/SET domain 6) | 2 | 56.9 (active) |
| PRDM6 (PR/SET domain 6) | 3 | 52.9 (active) |
| DDX11 (DEAD/H-box helicase 11) | 1 | 26.2 (active) |
| DDX11 (DEAD/H-box helicase 11) | 2 | 37.1 (active) |
| DDX11 (DEAD/H-box helicase 11) | 3 | 19.3 (active) |
| SMPD2 (sphingomyelin phosphodiesterase 2) | 1 | 82 |
| SMPD2 (sphingomyelin phosphodiesterase 2) | 2 | 51.2 (active) |
| SMPD2 (sphingomyelin phosphodiesterase 2) | 3 | 57.4 (active) |
| CYLD (CYLD lysine 63 deubiquitinase) | 1 | 43.5 (active) |
| CYLD (CYLD lysine 63 deubiquitinase) | 2 | 70 (active) |
| CYLD (CYLD lysine 63 deubiquitinase) | 3 | 54.6 (active) |
| CHD7 (chromodomain helicase DNA binding protein 7) | 1 | 39.1 (active) |
| CHD7 (chromodomain helicase DNA binding protein 7) | 2 | 40.1 (active) |
| CHD7 (chromodomain helicase DNA binding protein 7) | 3 | 50.9 (active) |
| RBBP7 (RB binding protein 7, chromatin remodeling factor) | 1 | 50.3 (active) |
| RBBP7 (RB binding protein 7, chromatin remodeling factor) | 2 | 60.3 (active) |
| RBBP7 (RB binding protein 7, chromatin remodeling factor) | 3 | 48.2 (active) |
| FOXS1 (forkhead box S1) | 1 | 54.9 (active) |
| FOXS1 (forkhead box S1) | 2 | 57.5 (active) |
| FOXS1 (forkhead box S1) | 3 | 57.4 (active) |
| PLCE1 (phospholipase C epsilon 1) | 1 | 60.5 (active) |
| PLCE1 (phospholipase C epsilon 1) | 2 | 65.6 (active) |
| PLCE1 (phospholipase C epsilon 1) | 3 | 51.7 (active) |
| AIFM2 (AIF family member 2, ferroptosis suppressor) | 1 | 43.5 (active) |
| AIFM2 (AIF family member 2, ferroptosis suppressor) | 2 | 37.9 (active) |
| AIFM2 (AIF family member 2, ferroptosis suppressor) | 3 | 34 (active) |
| BABAM2 (BRISC and BRCA1 A complex member 2) | 1 | 77.6 (active) |
| BABAM2 (BRISC and BRCA1 A complex member 2) | 1 | 31.9 (active) |
| BABAM2 (BRISC and BRCA1 A complex member 2) | 2 | 74.7 (active) |
| BABAM2 (BRISC and BRCA1 A complex member 2) | 2 | 55.3 (active) |
| BABAM2 (BRISC and BRCA1 A complex member 2) | 3 | 61.7 (active) |
| BABAM2 (BRISC and BRCA1 A complex member 2) | 3 | 39.8 (active) |
